These are yes or no findings as the source states them, for the method shown. In cells and extracts the contact can be indirect. A result given as binding can be weak or reduced; the word gives no strength. Sequences can lack the tags named with a protein.
What was measured:
[1] = target: T1, 6His-StrepII-sfGFP-RUFY3 (human) (UniProt Q7L099); assay: pull-down; 40 ug purified 6His-StrepII-sfGFP proteins mixed with cleared HEK293T lysate and Strep-Tactin Sepharose overnight at 4 °C (25 mM HEPES pH 7.4, 0.2% NP40, 1 mM Mg-ATP, 50 mM potassium acetate); immunoblot for endogenous DIC and p150Glued; only the target purified
T1 sequence: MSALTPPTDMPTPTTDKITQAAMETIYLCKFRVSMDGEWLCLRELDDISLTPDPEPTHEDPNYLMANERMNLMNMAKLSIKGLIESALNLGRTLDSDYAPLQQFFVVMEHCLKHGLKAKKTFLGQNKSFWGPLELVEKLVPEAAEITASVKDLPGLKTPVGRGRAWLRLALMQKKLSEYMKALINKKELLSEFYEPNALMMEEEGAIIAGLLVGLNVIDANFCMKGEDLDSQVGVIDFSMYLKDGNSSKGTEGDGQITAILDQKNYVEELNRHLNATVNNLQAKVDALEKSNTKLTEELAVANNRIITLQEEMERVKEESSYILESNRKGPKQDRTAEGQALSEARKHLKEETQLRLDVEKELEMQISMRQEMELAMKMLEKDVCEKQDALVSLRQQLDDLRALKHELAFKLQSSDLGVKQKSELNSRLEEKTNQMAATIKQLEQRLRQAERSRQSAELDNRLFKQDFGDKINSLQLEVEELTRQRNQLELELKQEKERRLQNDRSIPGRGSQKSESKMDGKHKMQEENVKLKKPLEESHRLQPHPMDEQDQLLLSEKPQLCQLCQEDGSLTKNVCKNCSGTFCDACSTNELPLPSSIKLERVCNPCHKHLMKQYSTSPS

RUFY4-GFP (human) = target: T2, RUFY4-GFP (human) (UniProt Q6ZNE9); assay: co-IP; lysates of HEK293T cells transfected with GFP-tagged proteins, magnetic GFP-Trap 2 h at 4 °C (25 mM HEPES pH 7.4, 0.2% NP-40, 0.5 mM Mg-ATP, 50 mM potassium acetate); immunoblot for endogenous DIC and p150Glued
T2 sequence: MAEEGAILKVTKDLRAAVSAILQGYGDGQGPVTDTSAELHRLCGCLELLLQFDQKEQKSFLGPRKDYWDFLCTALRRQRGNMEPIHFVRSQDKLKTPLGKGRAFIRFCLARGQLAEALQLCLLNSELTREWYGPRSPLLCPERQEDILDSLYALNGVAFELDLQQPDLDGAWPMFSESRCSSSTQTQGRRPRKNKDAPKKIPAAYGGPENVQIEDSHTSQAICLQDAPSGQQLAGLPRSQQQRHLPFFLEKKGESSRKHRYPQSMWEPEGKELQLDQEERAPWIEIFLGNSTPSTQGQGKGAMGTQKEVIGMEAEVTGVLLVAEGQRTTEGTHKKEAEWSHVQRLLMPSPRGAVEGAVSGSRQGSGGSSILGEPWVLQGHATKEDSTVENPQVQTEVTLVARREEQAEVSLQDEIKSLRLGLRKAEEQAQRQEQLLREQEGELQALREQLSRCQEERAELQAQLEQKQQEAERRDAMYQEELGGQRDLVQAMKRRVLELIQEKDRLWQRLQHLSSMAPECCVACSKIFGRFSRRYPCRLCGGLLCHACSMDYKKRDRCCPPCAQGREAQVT

RUFY3.1-GFP (human) = target: T3, RUFY3.1-GFP (human) (UniProt Q7L099); assay: as above
T3 sequence: T1 sequence

binding [1]: binds
binding (RUFY4-GFP (human)): binds
binding (RUFY3.1-GFP (human)): binds
Substance: dynein intermediate chain (DIC), endogenous (human (endogenous in HEK293T))

— PMC8938451
